Measurements reported in PubChem BioAssay AID602196 (INSERM, 2012).

Aim: 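Genes whose knock-down alters cisplatin killing of lung cancer cells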
Cells: human A549 lung cancer cells
Reagent: siRNA pair against human genes
Time to read-out: 48 h transfection before cisplatin; time from cisplatin to read-out not stated
Conditions: cisplatin at a dose killing half of control-siRNA cells; exact dose and duration not given
Detection: 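Shift in cisplatin death relative to control siRNA, from -50 (all cells die) to +50 (no cells die); siRNAs harmful on their own scored 0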
Scale: two-siRNA summed score (-2 to +2): higher = both siRNAs protect from cisplatin killing; -2 means both sensitise
Active means: 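Each siRNA scores 0 if harmful alone by LDH or WST-1, otherwise +1 if it reduces and -1 if it increases cisplatin killing; a gene is active when both siRNAs agree (sum +2 or -2)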
Meaning of the calls: active = both siRNAs shift cisplatin killing the same way; inactive = no consistent shift, or siRNA harmful alone
This is one part, drawn at random, of about 23,000 deposited reagents. 455 of them (2%) count as active. 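Active includes both protection and sensitisation; some change values fall well beyond the stated -50 to +50 range.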 Entries without a mark were called inactive. Not all columns of the deposit are shown. Reagent sequences are not shown. Not given: the amount of reagent.

For LOC440728 [SID131522190], the entry reads two-siRNA summed score (-2 to +2) = 1. TPI1 [SID131518270] scored two-siRNA summed score (-2 to +2) = 0. After knock-down of NFASC [SID131506806], the screen gave two-siRNA summed score (-2 to +2) = 0. With knock-down of LRFN4 [SID131511537], the screen gave two-siRNA summed score (-2 to +2) = 0. TFPT [SID131506547] showed two-siRNA summed score (-2 to +2) = 0. With knock-down of ART4 [SID131516674], the screen gave two-siRNA summed score (-2 to +2) = 0.

Knock-down of LOC390205 [SID131517022] resulted in: two-siRNA summed score (-2 to +2) = 0. RCC1 [SID131519015] scored two-siRNA summed score (-2 to +2) = 1. With knock-down of LOC400623 [SID131510954] the results were two-siRNA summed score (-2 to +2) = 0. Against LOC440450 [SID131512778], the values are two-siRNA summed score (-2 to +2) = 0. With knock-down of PTRH1 [SID131517507] the results were two-siRNA summed score (-2 to +2) = 0. Knock-down of FOLR2 [SID131505992] resulted in: two-siRNA summed score (-2 to +2) = 0.

Depletion of LOC347376 [SID131505696] came out at: two-siRNA summed score (-2 to +2) = 0. Depletion of GPR3 [SID131505260] resulted in: two-siRNA summed score (-2 to +2) = 0. With knock-down of ADSS2 [SID131508222], the screen gave two-siRNA summed score (-2 to +2) = 0. With knock-down of TAFA2 [SID131512530], the screen gave two-siRNA summed score (-2 to +2) = 0. Against MCM3 [SID131516090], the values are two-siRNA summed score (-2 to +2) = 0. DCP1B [SID131521469] showed two-siRNA summed score (-2 to +2) = 1.

For PLAUR [SID131505836], the values are two-siRNA summed score (-2 to +2) = 0. Against SFRP5 [SID131500728] the deposit lists two-siRNA summed score (-2 to +2) = -1. For LOC442436 [SID131520444], the values are two-siRNA summed score (-2 to +2) = 1. For MACIR [SID131515837], the entry reads two-siRNA summed score (-2 to +2) = 0. After knock-down of NXPE4 [SID131516034], the record shows two-siRNA summed score (-2 to +2) = 0. Depletion of LOC387907 [SID131516736] gave: two-siRNA summed score (-2 to +2) = 0.

After knock-down of NHERF4 [SID131502165], the record shows two-siRNA summed score (-2 to +2) = -1. Against CACNB1 [SID131501445], the values are two-siRNA summed score (-2 to +2) = -1. For TCIRG1 [SID131522460] the deposit lists two-siRNA summed score (-2 to +2) = 1. Against MED19 [SID131511274], the values are two-siRNA summed score (-2 to +2) = 0. For LOC402671 [SID131510398], the values are two-siRNA summed score (-2 to +2) = 0. Silencing of RAB6B [SID131502807] gave: two-siRNA summed score (-2 to +2) = 0.

SNAP47 [SID131504627] gave two-siRNA summed score (-2 to +2) = 0.

4 entries from above, set out differently:
Target gene	PubChem SID	two-siRNA summed score (-2 to +2)
RCC1	SID131519015	1
LOC400623	SID131510954	0
LOC440450	SID131512778	0
PTRH1	SID131517507	0
